PubChem BioAssay AID732 (Emory University Molecular Libraries Screening Center, 2007)
Active and inactive are the calls of the source. How the calls were made is not given here.

System: in vivo angiogenesis, blood vessel count
Experiment: angiogenesis inhibition in living animals, in vivo study, HTS (AID 732);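 further: zebrafish embryos dosed at one day post fertilization; 0% = reference inhibitor and 100% = plate mean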
Settings: active compounds read low;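 tested at 30 µM in the well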

CN1C2CCC1CC(OC(=O)C(O)c1ccccc1)C2 (stereo unspecified)
vessel count % control: inactive: 108%
